Screen size: about 1,500 compounds; about 65 (4%) were called active. Listed are the inconclusive results; actives and inactives stand elsewhere. The call rests on the fitted dose curve; in most records, active means well fitted inhibition curve with a large enough effect; inconclusive means small, poorly fitted or top-dose-only effect; inactive means flat fitted curve, though single readings scatter.
Test: qHTS Assay for Inhibitors of Fructose-1,6-bisphosphate Aldolase from Giardia Lamblia: Mammalian cellular toxicity;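 further: compound exposure lasted 48 h before reading; nearly all actives have a fitted effect of over 60% in size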
Details: mammalian cell viability counter-screen
Text: NIH Chemical Genomics Center [NCGC]
NIH Molecular Libraries Probe Production centers Network [MLPCN]
Assay Provider: Osnat Herzberg, University of Maryland
The objective of this project is to obtain compounds that inhibit Giardia lamblia growth. G. lamblia is a human pathogen which afflicts impoverished nations; it is the most common cause of outbreaks of diarrhea in the United States. During the course of our study of potential drug targets in Giardia, we have identified the Class II (Zn2+ functions in electrophilic catalysis) fructose-1,6-bisphosphate aldolase (FBPA) as an excellent candidate for drug targeting. FBPA is a key glycolytic pathway enzyme, essential for G. lamblia survival. […]
A glyceraldehyde-3-phosphate dehydrogenase/triose phosphate isomerase/NAD/arsenate coupled assay was adapted to the 1536-well HTP format for use in the primary screen. This was done by coupling it to a diaphorase/resazurin/resorufin reaction that can be monitored by fluorescence (excitation, 544 nm; emission, 590 nm). Compounds identified in this screen will be further evaluated by coupling the glycerol-3-phosphate/triose phosphate isomerase/NADH assay to a phenazine methosulfate/tetranitroblue tetrazolium color reaction. […]
With `CCCN1CCC(Nc2cc(OC)cc(OC)c2)CC1` the Potency was inconclusive: 25.1 µM.

From PubChem BioAssay AID2786 (National Center for Advancing Translational Sciences (NCATS), 2010)
Potency means the concentration at half of the fitted maximal effect.
